These are yes or no findings as the source states them, for the method shown. In cells and extracts the contact can be indirect.
Target: GST-IκBα (UniProt P25963)
Experiment: pull-down; as a5, but in the presence of 100 μM PSA for 1 h; only the target purified

Protein sequences, listed by entry. Tags and fused reporters are not part of them.
UniProt P25963: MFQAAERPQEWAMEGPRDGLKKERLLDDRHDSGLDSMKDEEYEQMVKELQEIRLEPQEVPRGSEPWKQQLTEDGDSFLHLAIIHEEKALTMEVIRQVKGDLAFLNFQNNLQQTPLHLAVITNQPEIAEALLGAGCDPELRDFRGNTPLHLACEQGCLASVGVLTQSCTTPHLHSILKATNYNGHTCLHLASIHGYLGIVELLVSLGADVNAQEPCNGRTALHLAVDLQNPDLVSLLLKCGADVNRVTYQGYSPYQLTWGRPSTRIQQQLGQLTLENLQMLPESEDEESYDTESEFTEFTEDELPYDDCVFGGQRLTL
UniProt Q04206: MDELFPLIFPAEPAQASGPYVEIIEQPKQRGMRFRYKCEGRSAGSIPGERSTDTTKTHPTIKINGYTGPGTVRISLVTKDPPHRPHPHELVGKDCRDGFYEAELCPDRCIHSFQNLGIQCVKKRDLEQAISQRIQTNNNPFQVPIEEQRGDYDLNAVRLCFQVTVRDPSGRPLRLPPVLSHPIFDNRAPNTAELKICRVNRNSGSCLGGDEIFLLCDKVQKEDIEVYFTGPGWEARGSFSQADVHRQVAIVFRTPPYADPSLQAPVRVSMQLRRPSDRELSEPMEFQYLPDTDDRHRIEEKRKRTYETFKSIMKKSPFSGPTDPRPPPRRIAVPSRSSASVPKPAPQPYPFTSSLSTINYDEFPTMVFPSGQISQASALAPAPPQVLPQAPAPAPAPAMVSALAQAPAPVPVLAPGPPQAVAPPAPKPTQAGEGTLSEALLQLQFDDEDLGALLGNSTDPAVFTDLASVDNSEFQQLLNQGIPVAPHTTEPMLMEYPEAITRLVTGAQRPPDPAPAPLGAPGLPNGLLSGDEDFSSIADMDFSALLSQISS

## endogenous p65 (from UniProt Q04206 1-551)
  binding: no binding (condition: with 100 μM PSA for 1 h)
